# Laboratory results from the supplement of paper PMC10727501.
# Counter-ions that a name gives are not always drawn. The list shows a part of the results. Repeats in this data set agree poorly, so a single value says little.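 Free-swimming zebrafish larvae were assessed for O-bend response probability to dark flashes (naive: first five; training: remaining flashes across four 60-flash blocks; test: later 60-flash block) and for OMR turning toward alternating leftward/rightward LED motion. Six treated larvae were compared against sixty 0.1% DMSO controls; hits required |SSMD|≥2.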
# System: Danio rerio larvae (5 dpf, TLF)
# Assay: Prob-Train (SSMD vs DMSO vehicle); higher = higher than vehicle (e.g. higher dark-flash O-bend response probability, or better optomotor performance)
# Conditions: 10 µM; pre-incubation: 30-90 min
row,Structure (SMILES),Prob-Train
1,CC(C)c1nc(CN(C)C(=O)N[C@H](C(=O)N[C@@H](Cc2ccccc2)C[C@H](O)[C@H](Cc2ccccc2)NC(=O)OCc2cncs2)C(C)C)cs1 [Ritonavir],0.608
2,CC(=O)OCC(=O)[C@]1(O)CC[C@H]2[C@@H]3CCC4=CC(=O)C=C[C@]4(C)[C@@H]3[C@H](O)C[C@@]21C [Prednisolone acetate (Omnipred)],0.208
3,OCC(CO)N[C@H]1C[C@@](O)(CO)[C@@H](O)[C@H](O)[C@H]1O [Voglibose],-0.158
4,CC(=O)O.N=C(N)N/N=C/c1c(Cl)cccc1Cl [Guanabenz Acetate],-3.26
5,CC(C)(C)NCC(O)c1ccc(O)c(CO)c1.O=S(=O)(O)O (stereo not given) [Salbutamol sulfate (Albuterol)],0.132
6,CN(C)C(=O)c1cc2cnc(Nc3ccc(N4CCNCC4)cn3)nc2n1C1CCCC1,-0.0494
7,C=CC(=O)Nc1cccc(Oc2nc(Nc3ccc(N4CCN(C)CC4)cc3)ncc2Cl)c1,-0.33
8,CN(c1nccc(=O)[nH]1)C1CCN(c2nc3ccccc3n2Cc2ccc(F)cc2)CC1 [Mizolastine (Mizollen)],-0.182
9,CCn1c2ccccc2c2cc(Nc3ccnc(NCCCN4CCOCC4)n3)ccc21,-0.414
10,O=c1cc(-c2ccc(O)cc2)oc2cc(O)cc(O)c12 [Apigenin],-0.193
11,CC(=O)OCC(=O)NCCCOc1cccc(CN2CCCCC2)c1.Cl [Roxatidine Acetate HCl],0.54
12,CCCNCC(O)COc1ccccc1C(=O)CCc1ccccc1 (stereo not given) [Propafenone HCl],0.885
13,CN1CCC(=C2c3ccccc3CCc3cccnc32)CC1.O=C(O)C=CC(=O)O.O=C(O)C=CC(=O)O [Azatadine dimaleate],-0.694
14,C[C@@H]1[C@H](NC(=O)/C(=N\OC(C)(C)C(=O)O)c2csc(N)n2)C(=O)N1S(=O)(=O)O [Aztreonam],0.115
15,NC[C@H]1O[C@H](O[C@H]2[C@H](O)[C@@H](O[C@H]3O[C@H](CO)[C@@H](O)[C@H](N)[C@H]3O)[C@H](N)C[C@@H]2N)[C@H](N)[C@@H](O)[C@@H]1O [Bekanamycin],0.213
16,Cc1cc(C(=O)NOCCO)c(Nc2ccc(I)cc2F)n(C)c1=O,-1.07
17,"CC[C@H](Nc1ncnc2[nH]cnc12)c1nc2cccc(F)c2c(=O)n1-c1ccccc1 [CAL-101 (Idelalisib, GS-1101)]",-0.322
18,c1ccc2[nH]c(-c3cscn3)nc2c1 [Thiabendazole],-1.19
19,Cl.Clc1ccc2nsnc2c1NC1=NCCN1 [Tizanidine HCl],-0.459
20,COC(=O)Nc1nc2ccc(S(=O)c3ccccc3)cc2[nH]1 (stereo not given) [Oxfendazole],-0.48

row,Structure (SMILES),Prob-Train
1,CN1c2ccccc2C(=O)N2CCc3c([nH]c4ccccc34)C21 (stereo not given) [Evodiamine],-0.74
2,CCCS(=O)c1ccc2nc(NC(=O)OC)[nH]c2c1 (stereo not given) [Albendazole Oxide],-0.0873
3,C=C(c1ccc(C(=O)O)cc1)c1cc2c(cc1C)C(C)(C)CCC2(C)C [Bexarotene],-0.385
4,O=C1CCC[C@@H]2[C@@H]3CCC[N+]4([O-])CCC[C@H](CN12)[C@@H]34 (stereo not given in full) [Oxymatrine],-0.0573
5,Cc1[nH]c(=O)c(C#N)cc1-c1ccncc1 [Milrinone],0.182
6,CC(C)C[C@H](NC(=O)CNC(=O)c1cc(Cl)ccc1Cl)B1OC(=O)CC(CC(=O)O)(C(=O)O)O1 (stereo not given in full),-0.0938
7,Nc1nc(=O)c2c([nH]1)NC[C@H](CNc1ccc(C(=O)N[C@@H](CCC(=O)[O-])C(=O)[O-])cc1)N2C=O.[Ca+2] [Calcium levofolinate (Calcium Folinate)],-0.266
8,COc1c(C)cnc(Cn2cnc3c(Cl)nc(N)nc32)c1C,-0.101
9,C[C@@H]1CC(=O)NN=C1c1ccc(NN=C(C#N)C#N)cc1 [Levosimendan],0.0272
10,CCCS(=O)(=O)Nc1ccc(F)c(C(=O)c2c[nH]c3ncc(Cl)cc23)c1F,-0.606
11,CS(=O)(=O)CCNCc1ccc(-c2ccc3ncnc(Nc4ccc(OCc5cccc(F)c5)c(Cl)c4)c3c2)o1.Cc1ccc(S(=O)(=O)O)cc1.Cc1ccc(S(=O)(=O)O)cc1,-1.72
12,C[C@H](O)[C@@H]1C(=O)N2C(C(=O)O)=C(S[C@@H]3CN[C@H](CNS(N)(=O)=O)C3)[C@@H](C)[C@@H]12.O [Doripenem Hydrate],-0.0491
13,NS(=O)(=O)Cc1noc2ccccc12 [Zonisamide],0.121
14,"CNC(=O)[C@H](Cc1c[nH]c2ccccc12)NC(=O)[C@@H](CC(=O)NO)CC(C)C [Ilomastat (GM6001, Galardin)]",-0.378
15,C[C@@H]1CN(c2c(F)c(F)c3c(=O)c(C(=O)O)cn(C4CC4)c3c2F)C[C@@H](C)N1 [Orbifloxacin],0.44
16,CC(=O)N[C@@H](CS)C(=O)O [Acetylcysteine],-0.893
17,CC(N)C12CC3CC(CC(C3)C1)C2 (stereo not given) [Rimantadine],0.0497
18,C[C@@H]1O[C@H](O[C@H]2[C@H](O)[C@@H](O)[C@@H](O[C@H]3[C@H](O)[C@@H](O)[C@H](O)O[C@H]3CO)O[C@H]2CO)[C@H](O)[C@@H](O)[C@@H]1N[C@H]1C=C(CO)[C@@H](O)[C@H](O)[C@@H]1O [Acarbose],0.159
19,C[C@H](NC(=O)[C@@H](O)c1cc(F)cc(F)c1)C(=O)N[C@@H]1C(=O)N(C)c2ccccc2-c2ccccc21,0.0776
20,O=C(COc1ccc(C(=O)c2ccccc2)cc1)NC1CCN(Cc2ccccc2)CC1 [AdipoRon],-0.89

# Reprinted at random: two compounds from above.
row,Structure (SMILES),Prob-Train
13,NS(=O)(=O)Cc1noc2ccccc12 [Zonisamide],0.121
7,Nc1nc(=O)c2c([nH]1)NC[C@H](CNc1ccc(C(=O)N[C@@H](CCC(=O)[O-])C(=O)[O-])cc1)N2C=O.[Ca+2] [Calcium levofolinate (Calcium Folinate)],-0.266
